Measurements published in PMC6328609.
Results are given in words; binding and its absence hold for the method and conditions named. In cells and extracts the contact can be indirect. Some binding calls cover weakened binding; strength is not graded here.

The chains behind the UniProt entries cited, without tags or fusion partners.
UniProt O95817: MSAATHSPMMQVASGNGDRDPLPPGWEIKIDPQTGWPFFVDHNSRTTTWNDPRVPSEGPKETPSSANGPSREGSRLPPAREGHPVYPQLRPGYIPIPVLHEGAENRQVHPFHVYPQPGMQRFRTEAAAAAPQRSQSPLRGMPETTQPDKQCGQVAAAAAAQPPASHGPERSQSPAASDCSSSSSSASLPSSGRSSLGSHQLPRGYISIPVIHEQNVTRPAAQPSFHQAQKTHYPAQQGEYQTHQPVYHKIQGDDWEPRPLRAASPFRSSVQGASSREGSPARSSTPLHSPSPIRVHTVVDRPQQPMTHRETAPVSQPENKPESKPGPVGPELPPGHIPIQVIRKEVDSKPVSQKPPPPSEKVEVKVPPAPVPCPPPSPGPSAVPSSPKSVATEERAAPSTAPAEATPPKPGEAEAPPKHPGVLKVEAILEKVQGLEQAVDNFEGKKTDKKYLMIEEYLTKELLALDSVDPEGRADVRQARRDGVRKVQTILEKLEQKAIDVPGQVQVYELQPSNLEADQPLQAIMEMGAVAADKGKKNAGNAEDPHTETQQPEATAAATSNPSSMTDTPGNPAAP
UniProt P20700: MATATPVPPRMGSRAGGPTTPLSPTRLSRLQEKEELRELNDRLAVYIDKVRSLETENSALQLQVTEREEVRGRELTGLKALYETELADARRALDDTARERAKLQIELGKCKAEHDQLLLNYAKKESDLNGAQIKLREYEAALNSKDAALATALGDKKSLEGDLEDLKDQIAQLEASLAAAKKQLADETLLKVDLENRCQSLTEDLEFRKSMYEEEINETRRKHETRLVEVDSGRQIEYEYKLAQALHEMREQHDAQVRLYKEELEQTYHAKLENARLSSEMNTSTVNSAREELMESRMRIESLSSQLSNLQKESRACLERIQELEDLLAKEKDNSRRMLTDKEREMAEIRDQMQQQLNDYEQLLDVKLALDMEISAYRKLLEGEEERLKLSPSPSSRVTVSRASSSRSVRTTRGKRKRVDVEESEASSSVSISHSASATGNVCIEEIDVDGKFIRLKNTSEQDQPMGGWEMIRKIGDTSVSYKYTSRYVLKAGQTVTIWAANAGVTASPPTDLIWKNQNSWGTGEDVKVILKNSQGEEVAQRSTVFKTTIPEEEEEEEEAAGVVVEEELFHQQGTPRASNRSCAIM

Molecular target: Bcl2-associated anthanogene-3 (BAG3), FLAG-tagged, full length (human) (UniProt O95817)
Experiment: co-IP; HEK293 cells transfected 48 h, lysed in RIPA buffer; FLAG-BAG3 constructs precipitated with FLAG antibody on magnetic beads in Tris (pH 7.5)-buffered saline; western blot of the partner

In the case of “mCherry-lamin B1-10 (from UniProt P20700 1-586)”, the binding is reported as “binds”.
